Results on one substance are retold here after PMC2696590.

The target of this assay is neurotensin immobilised on the NT column. Kind of assay: ligand-affinity column; NTS1-7m applied to a neurotensin (NT) column; elution tried with high concentration (e.g. 1 M) NaCl.

Results are given in words; binding and its absence hold for the method and conditions named. Some results given as binding are weak or reduced against the parent protein; the word gives no strength.

Turning to “NTS1-7m (A86L, I260A, F342A, F358A), MBP and TrxA-H10 fusion (from UniProt P20789 43-424) (receptor)”, the binding result is “binds”.
